No constants are given. Whether binding was seen depends on the method and setting. Some entries that bind do so weakly or less than the wild type.

By UniProt entry, the sequences of proteins in these tests, tags left out. Where a name states a change or a piece, a line headed by the entry shows the natural chain unless it says otherwise.
UniProt Q14344: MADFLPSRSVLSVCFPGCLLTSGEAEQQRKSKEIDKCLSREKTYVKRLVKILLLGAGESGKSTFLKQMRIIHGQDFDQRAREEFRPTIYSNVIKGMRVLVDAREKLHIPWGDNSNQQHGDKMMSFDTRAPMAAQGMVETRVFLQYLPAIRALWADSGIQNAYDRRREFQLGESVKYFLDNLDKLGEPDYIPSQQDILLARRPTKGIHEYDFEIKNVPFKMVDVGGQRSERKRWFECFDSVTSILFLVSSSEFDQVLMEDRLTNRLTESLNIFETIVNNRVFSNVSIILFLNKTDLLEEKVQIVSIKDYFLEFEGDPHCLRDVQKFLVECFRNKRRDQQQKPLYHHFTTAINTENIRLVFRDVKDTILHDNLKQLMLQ
UniProt P05107: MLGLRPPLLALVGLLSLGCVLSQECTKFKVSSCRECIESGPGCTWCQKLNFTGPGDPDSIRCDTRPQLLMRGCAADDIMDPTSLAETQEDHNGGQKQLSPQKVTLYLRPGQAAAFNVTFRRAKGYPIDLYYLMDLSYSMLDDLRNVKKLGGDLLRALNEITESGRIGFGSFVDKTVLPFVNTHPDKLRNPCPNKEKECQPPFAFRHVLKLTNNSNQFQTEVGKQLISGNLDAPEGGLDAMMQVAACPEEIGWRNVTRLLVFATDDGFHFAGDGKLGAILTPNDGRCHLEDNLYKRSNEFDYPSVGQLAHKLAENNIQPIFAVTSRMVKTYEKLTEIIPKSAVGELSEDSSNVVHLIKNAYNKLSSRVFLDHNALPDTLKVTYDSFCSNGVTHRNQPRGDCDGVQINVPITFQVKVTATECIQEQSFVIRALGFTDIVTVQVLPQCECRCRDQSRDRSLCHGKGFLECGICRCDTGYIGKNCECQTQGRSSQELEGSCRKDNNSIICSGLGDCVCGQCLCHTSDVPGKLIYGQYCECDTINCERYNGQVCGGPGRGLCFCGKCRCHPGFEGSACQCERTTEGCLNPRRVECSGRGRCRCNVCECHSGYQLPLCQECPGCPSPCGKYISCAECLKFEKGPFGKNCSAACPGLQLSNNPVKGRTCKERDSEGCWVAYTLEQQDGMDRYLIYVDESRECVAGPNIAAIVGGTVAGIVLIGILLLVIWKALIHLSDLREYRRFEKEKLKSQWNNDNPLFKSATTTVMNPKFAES

The target in this assay is Gα13 (preparation not stated; sentence on β1, β2 and β3 subunits) (Homo sapiens (Human)) (UniProt Q14344). The assay is described as follows: assay and constructs not described.

With “integrin β2 subunit (construct not described) (from UniProt P05107 23-769) (receptor)”, the binding entry is “binds”.

The values are drawn from patent US20160257711A1 (BOARD OF TRUSTEES OF THE UNIVERSITY OF ILLINOIS, published 2016).
